Amino acid sequences for entries named in this document (tags omitted). A change or cut given only in a name is not applied to a line headed by its entry.
UniProt Q9BXW9: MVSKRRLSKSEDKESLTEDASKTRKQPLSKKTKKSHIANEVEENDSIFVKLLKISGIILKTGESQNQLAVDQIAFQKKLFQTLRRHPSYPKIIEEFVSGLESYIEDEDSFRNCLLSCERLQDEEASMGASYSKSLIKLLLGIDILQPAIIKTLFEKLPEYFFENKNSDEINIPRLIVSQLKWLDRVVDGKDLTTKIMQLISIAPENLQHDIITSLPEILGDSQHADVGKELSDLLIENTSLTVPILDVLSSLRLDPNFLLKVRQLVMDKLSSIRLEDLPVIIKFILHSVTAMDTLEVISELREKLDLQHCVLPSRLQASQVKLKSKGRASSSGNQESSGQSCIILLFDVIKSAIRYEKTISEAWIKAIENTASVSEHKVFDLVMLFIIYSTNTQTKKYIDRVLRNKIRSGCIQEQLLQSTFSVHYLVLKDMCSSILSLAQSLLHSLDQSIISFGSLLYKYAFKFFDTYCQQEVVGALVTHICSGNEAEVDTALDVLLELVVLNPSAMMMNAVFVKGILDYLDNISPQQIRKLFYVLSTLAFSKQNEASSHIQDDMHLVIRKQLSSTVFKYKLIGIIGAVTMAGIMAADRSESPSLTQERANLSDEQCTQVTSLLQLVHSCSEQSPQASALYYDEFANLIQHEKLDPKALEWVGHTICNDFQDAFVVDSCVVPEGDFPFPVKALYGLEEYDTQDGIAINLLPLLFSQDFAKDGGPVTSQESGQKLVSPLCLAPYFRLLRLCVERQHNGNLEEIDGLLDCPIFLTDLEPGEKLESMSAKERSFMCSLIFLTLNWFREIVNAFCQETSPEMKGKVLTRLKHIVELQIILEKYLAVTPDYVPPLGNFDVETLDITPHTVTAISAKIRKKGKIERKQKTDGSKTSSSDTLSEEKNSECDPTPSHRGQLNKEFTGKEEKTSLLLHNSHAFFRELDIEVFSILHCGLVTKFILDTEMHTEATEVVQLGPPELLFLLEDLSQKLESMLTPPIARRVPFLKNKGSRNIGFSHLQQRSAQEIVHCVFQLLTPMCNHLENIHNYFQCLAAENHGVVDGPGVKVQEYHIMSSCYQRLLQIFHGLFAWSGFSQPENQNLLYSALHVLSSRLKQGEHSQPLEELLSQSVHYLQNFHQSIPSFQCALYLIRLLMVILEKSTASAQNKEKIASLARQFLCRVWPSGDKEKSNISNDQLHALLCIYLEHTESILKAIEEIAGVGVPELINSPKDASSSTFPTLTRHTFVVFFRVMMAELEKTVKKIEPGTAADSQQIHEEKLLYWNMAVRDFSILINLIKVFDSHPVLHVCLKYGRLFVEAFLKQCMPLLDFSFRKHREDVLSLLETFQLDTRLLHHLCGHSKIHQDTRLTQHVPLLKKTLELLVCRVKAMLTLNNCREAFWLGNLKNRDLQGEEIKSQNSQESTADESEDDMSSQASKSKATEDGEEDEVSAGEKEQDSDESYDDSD

The exact form of at least one protein or probe is not confirmed. The comparison behind a weaker result is the experiment's own reference, which may not be listed here.
What follows are sequences tested against monoubiquitinated FANCD2 (ub-D2) (UniProt Q9BXW9) (assay: EMSA). Conditions: 20 mM HEPES pH 7.9, 50 mM NaCl, 20% glycerol, 2 mM EDTA, 1 mM DTT, 0.1 mg/ml BSA, ~20 fmol DNA in 21 ul, 37 C 20 min; 6% native PAGE, 0.5x TBE; recombinant protein; label: 32P; probe letters rebuilt from the primers and the genome.
“AGCCAAGGTGCCTCTTTCAGCACAGACAGCAGAAGAGGCCTGTCTGCTCCTCCCGGAC (double strand) [B17 (GM-CSF origin)]”: binds more weakly. “CCCCAGGGAGTAGGTTGTGATGGGGGACCTATCCCAGGAAAACTCAGCAGGAAAGGACACTGGGCCTGCTGCTTGGTCTTTGGGCTTTTCTCAAATAACA (double strand) [B13 (non-origin)]”: binds more weakly. “CTCCACCCCCAAGGAAAAAGGTCACTGGCTAGTGTAGCTAGTGTAAACAGGACCCAGGCGATGCATGGGACCCTGCC (double strand) [B48 (Lamin B2 origin)]”: binds. “GTCTGACCTGCGGAGGTAGTTTGGGTGGCTACTTGGTGTTGGACTTGGCTAAATAAATACCAGAGGCAGATAAAACAAGCGAGGGGCCTAGGTCAAGAGTTCCAAGTTTGTTCCTCGATAAAAAACGACAAACGCGGTCGGGGGCGGTGATGCCCGCCTGCAGTCCCAACACTTTAGGAAGCTGAGGCGGGGGGATCGCAGGAGTTCGAGACCAGTCTGGGCAACATAATGAGACCATCCCCACCACCTCCCGTCCTTAATTTTTTTTAATAAAAAAAATCTTTAAGTGAGAAATGCATCTGTAATGTCCTTATTAACCAAAAACGCCTAAGGGATAAAGAAGCACACGCTCCCTAGCCAACGCTAGAGGAACACACCCCGAGAGCTGGTGCTGTAGGACCCAGTTTTCCCGCGAAAACGCTGCCGCGCAGGGGGTCAGACCATCTGGACCAAGGGGGGCCGAGCGAGGCCTACTTCTGGTTT (double strand) [MCM4 origin]”: binds more weakly.
